# Tested on: LNCaP cells
smiles,measurement,value
"CN(C)CCOC(c1ccccc1)c1ccccc1.Cn1c(=O)c2[nH]c(Cl)nc2n(C)c1=O [dimenhydrinate, reference compound]",viability screen: viability (% [ATP] normalized to R1881-treated control),102.9%

# — patent US20110263693A1, “CELASTROL, GEDUNIN, AND DERIVATIVES THEREOF AS HSP90 INHIBITORS” (DANA-FARBER CANCER INSTITUTE, INC., priority 2006, published 2011)
